Reference: PMC5902563
No constants are given. Whether binding was seen depends on the method and setting. Binding calls can cover weak binding; strength is not graded here. Tags and fused reporters may be left off the sequences shown. For part of these data: In cells and extracts the contact can be indirect. One block for each molecule: values may come before it.

Tests used:
[1] = molecular target: T1, BD-Tm-2^2 (full-length Tm-2^2 fused to the LexA DNA binding domain) (tomato) (UniProt Q71BG9); experiment: two-hybrid; LexA-based pairwise test; BD bait and B42 AD prey under a galactose-inducible promoter; growth on Leu- medium and blue colour on X-gal medium with galactose/raffinose (not on glucose), 28°C for 4 days
T1 sequence: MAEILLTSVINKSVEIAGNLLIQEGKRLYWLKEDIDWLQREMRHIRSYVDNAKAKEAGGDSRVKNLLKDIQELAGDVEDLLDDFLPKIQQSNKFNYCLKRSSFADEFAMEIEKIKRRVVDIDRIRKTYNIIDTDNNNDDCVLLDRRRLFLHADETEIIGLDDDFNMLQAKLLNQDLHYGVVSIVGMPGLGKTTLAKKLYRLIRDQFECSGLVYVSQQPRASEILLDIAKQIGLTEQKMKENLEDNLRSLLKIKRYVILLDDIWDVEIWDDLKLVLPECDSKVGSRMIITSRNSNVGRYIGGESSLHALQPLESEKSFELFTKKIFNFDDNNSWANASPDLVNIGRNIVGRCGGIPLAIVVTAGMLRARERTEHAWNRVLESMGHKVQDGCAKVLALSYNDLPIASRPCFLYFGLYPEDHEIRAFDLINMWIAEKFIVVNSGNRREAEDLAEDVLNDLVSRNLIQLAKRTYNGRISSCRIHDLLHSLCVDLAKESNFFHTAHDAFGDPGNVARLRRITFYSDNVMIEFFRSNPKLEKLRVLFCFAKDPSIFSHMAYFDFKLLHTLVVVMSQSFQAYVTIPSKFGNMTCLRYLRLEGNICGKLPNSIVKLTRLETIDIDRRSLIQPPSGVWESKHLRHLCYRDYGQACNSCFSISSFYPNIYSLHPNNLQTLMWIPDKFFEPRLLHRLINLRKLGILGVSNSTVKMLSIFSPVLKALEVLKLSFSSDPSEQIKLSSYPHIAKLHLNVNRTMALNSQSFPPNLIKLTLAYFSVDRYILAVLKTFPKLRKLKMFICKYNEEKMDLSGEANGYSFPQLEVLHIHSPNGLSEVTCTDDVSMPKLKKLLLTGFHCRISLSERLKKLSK

Tm-2^2-nLUC (tomato) = molecular target: T2, Tm-2^2-nLUC (tomato) (UniProt Q71BG9); experiment: split reporter; firefly luciferase complementation imaging (LCI) in agroinfiltrated N. benthamiana leaves, 48 hpi, 1 mM luciferin, cooled CCD
T2 sequence: T1 sequence

[2] = molecular target: HA-tagged NbHsp90 (3 x HA-NbHsp90) (Nicotiana benthamiana); experiment: co-IP; HA-NbHsp90 co-expressed with Tm-2^2-myc or cLUC-myc in N. benthamiana leaves, 48 hpi; total protein extracts, anti-HA beads, 4°C for 2 h, four washes; blots with anti-myc and anti-HA

binding [1]: binds
Molecule: AD-NbHsp90 (full-length Nicotiana benthamiana Hsp90 fused to the B42 activation domain)

binding (Tm-2^2-nLUC (tomato)): binds
Molecule: cLUC-NbHsp90 (Nicotiana benthamiana)

binding [2]: binds
B1: myc-tagged Tm-2^2 (Tm-2^2-4 x myc) (protein, UniProt Q71BG9 1-861)
chain: T1 sequence
